Test results published in article PMC5963844.
These are yes or no findings as the source states them, for the method shown. In cells and extracts the contact can be indirect. Some results given as binding are weak or reduced against the parent protein; the word gives no strength. Sequences can lack the tags named with a protein.

Target: T1, Samp1a–YFP (human) (UniProt Q5SNT2)
T1 sequence: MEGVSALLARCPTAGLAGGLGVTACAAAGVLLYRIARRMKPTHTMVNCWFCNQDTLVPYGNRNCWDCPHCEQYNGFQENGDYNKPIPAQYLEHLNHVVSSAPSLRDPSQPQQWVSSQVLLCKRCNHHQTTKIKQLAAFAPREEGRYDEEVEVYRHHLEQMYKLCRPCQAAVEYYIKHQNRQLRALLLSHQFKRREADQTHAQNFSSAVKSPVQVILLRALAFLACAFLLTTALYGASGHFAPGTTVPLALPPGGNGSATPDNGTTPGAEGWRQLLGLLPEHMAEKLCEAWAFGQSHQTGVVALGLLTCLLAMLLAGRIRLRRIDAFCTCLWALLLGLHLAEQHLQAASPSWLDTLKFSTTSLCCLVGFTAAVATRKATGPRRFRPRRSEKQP
Assay: co-IP; membrane protein cross-link immunoprecipitation (MCLIP): cells synchronised in metaphase, in vivo cross-linking with 1 mM DSP for 15 min, lysis in 7 M urea and 1% Triton X-100, diluted 8x with PBS, Samp1a–YFP captured on GFP trap agarose beads 2 h at 4°C, wash 250 mM NaCl, 10 mM Hepes, 0.5% Triton X-100, pH 7.4, cross-link reversed with DTT, western blot

binding: binds
B1: HAUS6 subunit of the Augmin complex (protein, UniProt Q7Z4H7 1-955)
chain: MSSASVTAFEKEHLWMYLQALGFEPGPATIACGKIVSHTHLGVNMFDKLNRDAFHIISYFLFQVLDQSLTKEVFKFCWPPFDQKSDTEFRKHCCEWIKRISGECGSSFPQVVGSLFLSPGGPKFIHLMYHFARFVAMKYIKSNSKNSSHHFVETFNIKPQDLHKCIARCHFARSRFLQILQRQDCVTQKYQENAQLSVKQVRNLRSECIGLENQIKKMEPYDDHSNMEEKIQKVRSLWASVNETLMFLEKEREVVSSVLSLVNQYALDGTNVAINIPRLLLDKIEKQMFQLHIGNVYEAGKLNLLTVIQLLNEVLKVMKYERCQADQARLTVDLHYLEKETKFQKERLSDLKHMRYRIKDDLTTIRHSVVEKQGEWHKKWKEFLGLSPFSLIKGWTPSVDLLPPMSPLSFDPASEEVYAKSILCQYPASLPDAHKQHNQENGCRGDSDTLGALHDLANSPASFLSQSVSSSDRNSVTVLEKDTKMGTPKEKNEAISKKIPEFEVENSPLSDVAKNTESSAFGGSLPAKKSDPFQKEQDHLVEEVARAVLSDSPQLSEGKEIKLEELIDSLGSNPFLTRNQIPRTPENLITEIRSSWRKAIEMEENRTKEPIQMDAEHREVLPESLPVLHNQREFSMADFLLETTVSDFGQSHLTEEKVISDCECVPQKHVLTSHIDEPPTQNQSDLLNKKVICKQDLECLAFTKLSETSRMETFSPAVGNRIDVMGGSEEEFMKILDHLEVSCNKPSTNKTMLWNSFQISSGISSKSFKDNDFGILHETLPEEVGHLSFNSSSSSEANFKLEPNSPMHGGTLLEDVVGGRQTTPESDFNLQALRSRYEALKKSLSKKREESYLSNSQTPERHKPELSPTPQNVQTDDTLNFLDTCDLHTEHIKPSLRTSIGERKRSLSPLIKFSPVEQRLRTTIACSLGELPNLKEEDILNKSLDAKEPPSDLTR
